In patent publication US20210154279A1 one finds binding data, which are given here for 1 molecule.

In the assay the target is HLA-B*0702 (human). The assay is described as follows: peptide eluted from W6/32-purified MHC class I of CRC tumour, IMAC, LC-MS/MS; allele as printed in Table 4.

No constants are given. Whether binding was seen depends on the method and setting. In cells and extracts the contact can be indirect. Some entries that bind do so weakly or less than the wild type.

For APRDRRAVSF (phosphoserine at position 9 (lowercase s)) [TTC22 phosphopeptide APRDRRAVsF], the binding result is listed as “binds”.
